PubChem BioAssay AID743454 | Peter MacCallum Cancer Centre – 2014
The whole screen tested about 18,000 reagents; this is a random part of them. Of all reagents, 450 (2.5%) got an active call. 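Single biological run; no consistent viability z cut-off exists, so the class columns, not z-scores, define the calls.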

- Test: 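Genes whose loss kills vorinostat-resistant colon cancer cells under vorinostat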 (primary screen)
- Cells: human HCT116-VR colon cancer cells, selected for vorinostat resistance
- Reagent: siRNA pool against human genes, 40 nM siRNA pool
- Time to read-out: vorinostat for 24 h, read-out about 72 h after transfection
- Challenge: vorinostat at 2.5 µM final
- Measured: 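Cell viability by CellTiter-Fluor and caspase 3/7 activity by luminescence, each scaled to mock wells per plate, duplicates averaged, then robust z-scored over all plates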
- Reading the numbers: viability robust z-score: higher = more viable cells than screen typical; caspase robust z-score: higher = more caspase 3/7 activity than screen typical
- Hit rule: 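Hits are knock-downs in viability class RV1/RV2 or caspase class CA1/CA2, excluding ones that killed cells in the no-drug cell-count arm; hits then retested with single siRNAs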

What did the screen give for SAP130?
viability hit class: no change; caspase hit class: CA1 (caspase activation); viability robust z-score: -1.17; caspase robust z-score: 5.57; outcome: active

For DEK, what was measured?
viability hit class: no change; caspase hit class: no change; viability robust z-score: 1.41; caspase robust z-score: 0.08; outcome: inactive

With DTL, how do the results read?
viability hit class: no change; caspase hit class: no change; viability robust z-score: -1.07; caspase robust z-score: 2.68; outcome: inactive

How did the screen score SCNM1?
viability hit class: no change; caspase hit class: no change; viability robust z-score: -0.06; caspase robust z-score: -0.64; outcome: inactive

Which result is listed for GDPD4?
viability hit class: no change; caspase hit class: no change; viability robust z-score: 0.34; caspase robust z-score: 0.29; outcome: inactive

For OR2T6, what does the deposit list?
viability hit class: no change; caspase hit class: no change; viability robust z-score: 0.99; caspase robust z-score: -0.28; outcome: inactive

With UCHL3, what does the deposit list?
viability hit class: no change; caspase hit class: no change; viability robust z-score: 0.01; caspase robust z-score: 2.36; outcome: inactive

Which result is listed for DDX31?
viability hit class: no change; caspase hit class: no change; viability robust z-score: -1.39; caspase robust z-score: 1.74; outcome: inactive

For WDFY1, how do the results read?
viability hit class: no change; caspase hit class: no change; viability robust z-score: -0.62; caspase robust z-score: -0.54; outcome: inactive

With COL15A1, how do the results read?
viability hit class: no change; caspase hit class: no change; viability robust z-score: -0.38; caspase robust z-score: 2.8; outcome: inactive

With PNRC1, what was measured?
viability hit class: no change; caspase hit class: no change; viability robust z-score: 0.33; caspase robust z-score: 2.84; outcome: inactive

For DNAH10, what does the deposit list?
viability hit class: no change; caspase hit class: no change; viability robust z-score: -0.08; caspase robust z-score: 0.6; outcome: inactive
